Results published in US20090093669A1, “MAGNETOPHORESIS APPARATUS AND METHOD OF USE” (priority 2007, published 2009).
Some of these results come from one statement about several compounds together.

Conditions: fat free/low fat beef tissue

Structure (SMILES): CNC1(c2ccccc2Cl)CCCCC1=O (centres unmarked) [ketamine]
- enhancement of diffusion coefficient, TENS versus control (TENS field applied): 6-8 times
- enhancement of diffusion coefficient, magnetic field versus control (magnetic field applied): 4-5 times
